Experimental data published in PubChem BioAssay AID1671190 (National Center for Advancing Translational Sciences (NCATS), 2021).
About 6,100 (1.1%) of roughly 580,000 compounds were called active. The inconclusive results got no clear call from the source; some entries with a clear call stand among them for comparison. Calls follow the shape of the dose curve; as a rule, active = well fitted inhibition curve with a large enough effect; inconclusive = small, poorly fitted or top-dose-only effect, or another doubt; inactive = no such curve, though single readings can be large or run the other way. Potencies beside an inconclusive call are fits to weak or partial responses and may not hold up.

Amino acid sequences for entries named in this document (tags omitted).
UniProt P18054, whole entry, looked up: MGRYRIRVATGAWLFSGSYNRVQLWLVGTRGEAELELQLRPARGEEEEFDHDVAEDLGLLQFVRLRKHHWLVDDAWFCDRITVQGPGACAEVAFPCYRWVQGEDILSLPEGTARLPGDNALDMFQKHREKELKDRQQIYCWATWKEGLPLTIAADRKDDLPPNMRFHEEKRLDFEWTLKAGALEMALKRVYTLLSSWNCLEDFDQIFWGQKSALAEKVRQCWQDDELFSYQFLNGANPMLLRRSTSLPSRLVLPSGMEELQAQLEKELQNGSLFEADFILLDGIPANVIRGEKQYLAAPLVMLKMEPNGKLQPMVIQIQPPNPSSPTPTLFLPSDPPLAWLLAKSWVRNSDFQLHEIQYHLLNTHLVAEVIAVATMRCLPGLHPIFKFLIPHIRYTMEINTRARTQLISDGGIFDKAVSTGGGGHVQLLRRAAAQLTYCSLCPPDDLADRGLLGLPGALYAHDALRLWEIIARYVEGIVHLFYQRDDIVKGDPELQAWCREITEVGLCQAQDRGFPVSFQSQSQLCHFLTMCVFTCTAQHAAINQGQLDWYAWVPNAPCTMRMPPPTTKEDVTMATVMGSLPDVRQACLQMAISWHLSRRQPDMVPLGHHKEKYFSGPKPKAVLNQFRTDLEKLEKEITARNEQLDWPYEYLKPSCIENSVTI

Target: Polyunsaturated fatty acid lipoxygenase ALOX12 (Homo sapiens) (UniProt P18054)
Test: Primary qHTS assay for inhibitors of human arachidonate 12S-lipoxygenase (ALOX12): Round 2
Conditions: purified 12hLO, xylenol orange hydroperoxide absorbance; activity change, negative = inhibition: at 108 µM (top of the series)
Summary of the method: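 Purified human 12hLO at 150 nM in 25 mM Hepes, 0.01% Triton X-100, pH 7.0, preincubated 15 min at room temperature with compound. Reaction started with 40 uM arachidonic acid, 30 min at room temperature. Hydroperoxide measured by Fe-xylenol orange, 573/405 nm absorbance ratio.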
% is scaled to controls: 0 for no effect and ±100 for the full control effect; potency is read from the fitted curve at half-maximal effect.

SMILES | Potency | activity change, negative = inhibition
COc1ccc(C(=O)CN2CCOCC2)cc1F | inconclusive: 25.1 µM [inhibitor, partial curve, poor fit] | –
CCN(CC)c1ccc(/C=C/[N+](=O)[O-])cc1 | inconclusive: 100 µM [inhibitor, single point] | –
COc1ccc(/C=C/C2=CCN(C)CC2)cc1 | – | inactive: -1.91%
CCCN1CCC[C@@H]2Cc3[nH]ncc3C[C@H]21 | inconclusive: 39.8 µM [inhibitor, partial curve, poor fit] | –
COc1cccc(C2C([N+](=O)[O-])=C(N)Oc3c2c(=O)oc2ccccc32)c1 (configuration not stated) | inconclusive: 50.1 µM [inhibitor, partial curve, poor fit] | –
CC(=Nc1c(C)n(C)n(-c2ccccc2)c1=O)c1c(O)n(Cc2ccccc2)c(=O)[nH]c1=O | – | inactive: 0%
CC[C@@H](CO)NC(=O)[C@H]1C=C2c3cccc4c3c(cn4C)C[C@H]2N(C)C1 | inconclusive: 35.5 µM [inhibitor, single point] | –
CCC1(C(=O)c2ccccc2)C2c3ccccc3OC(=O)C21C(C)=O (configuration not stated) | inconclusive: 31.6 µM [inhibitor, single point] | –
CCC(C)N1C(=O)/C(=C/c2ccc3c(c2)CCN3CCCCl)C(=O)NC1=S (configuration not stated) | inconclusive: 44.7 µM [inhibitor, partial curve, poor fit] | –
Cc1cc(C(=O)CCl)c(C)[nH]1 | inconclusive: 35.5 µM [inhibitor, partial curve, poor fit] | –
C[N+]1(C)CCN(c2ccccc2)CC1 | inconclusive: 50.1 µM [inhibitor, partial curve, poor fit] | –
Cc1nn(Cc2ccccc2)c(Cl)c1C(=O)OCC(=O)Nc1cccc2ccccc12 | – | inactive: 5.56%
O=C(COC(=O)c1ccccc1)Nc1ccc(Cl)cc1C(=O)c1ccccc1 | – | inconclusive: -41.1% [inhibitor]
C=CCn1c(O)c(/C=N/NC(=O)CCCC)c(=O)[nH]c1=S | inconclusive: 56.2 µM [inhibitor, partial curve, poor fit] | –
CCCCCCn1c(=O)c(C(=O)Nc2ncccc2C)c(O)c2ccccc21 | – | inactive: 6.66%
COC(=O)[C@@H]1[C@@H](CO)[C@@H]2Cn3c(ccc(Br)c3=O)[C@H]1N2C(=O)c1ccncc1 | inconclusive: 126 µM [inhibitor, single point] | –
O=C(N/N=C/c1c(O)n(CCc2ccc(F)cc2)c(=O)[nH]c1=O)c1ccccc1 | – | inactive: -12.1%
O=c1ccc(-c2cncnc2)c2n1C[C@H]1C[C@@H]2CN(S(=O)(=O)c2ccccc2)C1 | – | inactive: 53.2% [at 176 µM]
COc1ccc(N=Nc2c(O)[nH]c(=S)[nH]c2=O)cc1 | inconclusive: 14.1 µM [inhibitor, partial curve, poor fit] | –
O=C1NC(=O)N(c2ccccc2F)C(=O)/C1=C/c1ccc(Sc2nc3ccccc3[nH]2)o1 | active: 31.6 µM | –
CC1CCN(CC(=O)c2ccc3c(c2)OCCO3)CC1 | inconclusive: 6.31 µM [inhibitor, full curve] | –
CN(C)Cc1ccccc1-c1ccc2n(c1=O)C[C@H]1C[C@@H]2CN(C(=O)c2cccs2)C1 | – | inactive: 1.61% [at 176 µM]
Cn1cccc1CN1CCN(C(=O)COc2ccccc2)CC1 | inconclusive: 0.501 µM [inhibitor, full curve, poor fit] | –

SMILES | Potency | activity change, negative = inhibition
O=C(Cc1ccccc1)N1CCC(C(=O)O)(c2ccccc2)CC1 | – | inactive: 3.19% [at 6.33 µM]
COc1cc(CNC2CN3CCC2CC3)cc(Cl)c1OCc1ccccc1 (configuration not stated) | inconclusive: 35.5 µM [inhibitor, partial curve] | –
O=C(/C=C/c1ccccc1)NC(=S)N1C[C@H]2C[C@H](C1)c1cccc(=O)n1C2 | inconclusive: 4.47 µM [inhibitor, full curve, poor fit] | –
Cc1ccc(-c2cc(-c3ccc(C)cc3)[n+](C)o2)cc1 | – | inactive: -7.17%
C[C@@H](N)[C@@H](O)c1ccccc1 | – | inactive: -0.178%
CCOC(=O)[C@]12Cc3ccccc3[C@H]1N(C(C)C)C(=O)c1ccccc12 | inconclusive: 39.8 µM [inhibitor, partial curve, poor fit] | –
CCOC(=O)[C@]12Cc3ccccc3[C@H]1N(CCC(=O)OC)C(=O)c1ccccc12 | inconclusive: 44.7 µM [inhibitor, partial curve, poor fit] | –
CN(Cc1cccs1)C(=O)CCl | inconclusive: 56.2 µM [inhibitor, partial curve, poor fit] | –
CCOc1ccc(NC2=NCCCS2)cc1 | – | inactive: 7.82%
Cc1ccccc1-n1c(O)c(/C=N/Nc2nc3c(c(=O)n(C)c(=O)n3C)n2C)c(=O)[nH]c1=S | inconclusive: 50.1 µM [inhibitor, partial curve, poor fit] | –
CSc1ncc(/C=C2/C(=O)NC(=O)N(c3ccc(C(C)C)cc3)C2=O)cn1 | inconclusive: 17.8 µM [inhibitor, partial curve, poor fit] | –
O=C(Nc1nccs1)C(Cl)(Cl)Cl | inconclusive: 1.78 µM [inhibitor, full curve, poor fit] | –
CCC1C2Cc3ccc(O)cc3C1(CC)CCN2C (configuration not stated) | inconclusive: 20 µM [inhibitor, partial curve] | –
COc1cccc(CC(=O)N2CC3(CCN(C(C)=O)CC3)c3cc(OC)c(CCc4ccccc4)cc32)c1 | inconclusive: 28.2 µM [inhibitor, full curve] | –
CCCCC/C(=N\O)c1c[nH]c2ccccc12 | – | inactive: -17%
COc1ccc2c(c1)c(C(=O)CN1CCN(C)CC1)c(C)n2Cc1ccccc1 | inconclusive: 126 µM [inhibitor, single point] | –
Cc1c(C=C2C(=O)N(C)C(=O)N(C)C2=O)c(=O)n(-c2ccccc2)n1C | – | inactive: -12.7%
O=C1NC(=O)N(c2ccccc2)C(=O)/C1=C/c1ccoc1 | inconclusive: 50.1 µM [inhibitor, partial curve] | –
CN(C(=O)Cc1ccc(Cl)c(Cl)c1)C(CN1CCCC1)c1cccc(OCC(=O)O)c1 (configuration not stated) | inconclusive: 50.1 µM [inhibitor, partial curve, poor fit] | –
COCc1nc(C2CC(N)C2)cc(N2CCCN3CCC[C@H]3C2)n1 (some centres not stated) | – | inactive: -16.7%
Cn1nc(-c2ccc(F)cc2)cc1[C@H]1CN2CC[C@H]1C[C@@H]2CNC(=O)Nc1ccccc1 | – | inactive: 65.2% [at 176 µM]
COCCNC(=O)[C@H]1CN2CC[C@H]1C[C@@H]2Cn1cc(CN(C)C)nn1 | – | inactive: 70.8% [at 176 µM]
COc1cc2c(cc1OC1CCCC1)NC(=O)C21CCN(c2nc(C)cc(C)n2)CC1 | – | inactive: 2.56% [at 176 µM]

SMILES | Potency | activity change, negative = inhibition
CN(CCc1ccc(Cl)c(Cl)c1)[C@@H]1CCCC[C@@H]1N1CCCC1 | inconclusive: 100 µM [inhibitor, single point] | –
COc1ccc(Cn2c(O)c(/C=N/NC(=O)c3ccccc3O)c(=O)[nH]c2=O)cc1 | inconclusive: 39.8 µM [inhibitor, partial curve, poor fit] | –
COc1ccc2c(c1)C13CCCC[C@@H]1C(C2)N(C)CC3 (some centres not stated) | – | inactive: 17%
CN1C(=O)CC(c2ccccc2)Nc2ccccc21 (configuration not stated) | inconclusive: 126 µM [inhibitor, single point] | –
CN(C)c1ccc(C=C2C(=O)NC(=S)NC2=O)cc1[N+](=O)[O-] | inconclusive: 31.6 µM [inhibitor, partial curve, poor fit] | –
COC(=O)[C@@H]1C[C@]2(C(=O)O)c3ccccc3N(OOSc3ccccc3)[C@@H]2N1C(=O)OC | – | inactive: 5.3%
CN1C(=O)C(=Cc2ccccc2Oc2ccc(Cl)cc2)C(=O)N(C)C1=O | inconclusive: 10 µM [inhibitor, partial curve, poor fit] | –
COc1ccccc1N1C(=O)NC(=O)C2(Cc3cc(C)ccc3N(C)C2)C1=O (configuration not stated) | inconclusive: 31.6 µM [inhibitor, partial curve, poor fit] | –
O=c1c2ccccc2nc(CSc2ncnc3nc[nH]c23)n1-c1ccccc1 | inconclusive: 44.7 µM [inhibitor, partial curve, poor fit] | –
CCOC(=O)[C@]12Cc3cc(C)ccc3[C@H]1N(C1CCCCC1)C(=O)c1ccccc12 | active: 50.1 µM | –
CCOc1cccc(C2NCc3ccccc3-n3cccc32)c1O (configuration not stated) | – | inactive: 0%
O=C(c1ccccc1)N1C[C@@H]2C[C@H](C1)c1ccc(-c3ccc(Cl)cc3)c(=O)n1C2 | inconclusive: 50.1 µM [inhibitor, partial curve, poor fit] | –
CCOC(=O)C1(c2ccccc2)CCN(CCC(=O)Nc2ccc(F)cc2)CC1 | – | inactive: -11.9%
COc1cc2c(cc1OCc1ccccc1)N(C(=O)c1cc3ccccc3n1C)CC21CCN(C)CC1 | active: 31.6 µM | –
COc1cc2c(cc1CCc1ccccc1)N(C(=O)COc1ccccc1)CC21CCN(C(C)=O)CC1 | inconclusive: 28.2 µM [inhibitor, full curve, poor fit] | –
O=C(Nc1ccc(Cl)cc1)Nc1nccs1 | inconclusive: 39.8 µM [inhibitor, partial curve, poor fit] | –
COc1ccc(C(=O)N2CC3(CCN(C)CC3)c3cc(OC)c(OCc4ccccc4)cc32)cn1 | inconclusive: 7.08 µM [inhibitor, full curve, poor fit] | –
C#C[C@H]1CN2CC[C@H]1C[C@@H]2CNC(=O)c1ccc(-c2ccccc2)cc1 | – | inactive: 28.4% [at 176 µM]
CCCOC(=O)C1C2c3ccccc3C(c3ccccc32)C1C(=O)O (configuration not stated) | inconclusive: 112 µM [inhibitor, partial curve, poor fit] | –
COc1ccc(-c2cc([C@H]3CN4CC[C@H]3C[C@@H]4CNC(=O)Nc3cccc(C(C)=O)c3)n(C)n2)cc1OC | – | inactive: 28.3%
Cn1cc(C(=O)C(=O)N[C@H]2CN3CCC2CC3)c2ccccc21 | inconclusive: 35.5 µM [inhibitor, single point] | –

Whole records, looked up by structure.
CCOc1cccc(C2NCc3ccccc3-n3cccc32)c1O (configuration not stated) in the list: activity change, negative = inhibition: inactive: 0%
C#C[C@H]1CN2CC[C@H]1C[C@@H]2CNC(=O)c1ccc(-c2ccccc2)cc1 in the list: activity change, negative = inhibition: inactive: 28.4% [at 176 µM]
COC(=O)[C@@H]1C[C@]2(C(=O)O)c3ccccc3N(OOSc3ccccc3)[C@@H]2N1C(=O)OC in the list: activity change, negative = inhibition: inactive: 5.3%
CN1C(=O)C(=Cc2ccccc2Oc2ccc(Cl)cc2)C(=O)N(C)C1=O in the list: Potency: inconclusive: 10 µM [inhibitor, partial curve, poor fit]
